According to the supplement of paper PMC12823440, “Inhibitors supercharge kinase turnover through native proteolytic circuits” (Nature, 2025):
Counter-ions that a name gives are not always drawn. The list shows a part of the results. Hit calls seldom repeat between salt and free forms of one compound.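 Kinases were expressed as nanoluciferase fusions in K562 cells and luminescence was read every 4 h between 2 and 18 h as percent of control, DMSO set to 100% and a positive control to 0%. A time point counts as decreased when the signal drops significantly (2 sigma). The hit call is the authors' own, does not follow from the count of time points alone, and its rule is not shown.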

Chains of the proteins cited; added tags and fusions are not shown. Lines headed by an entry give the natural chain unless they say otherwise; changes in a name come on top.
UniProt P31749: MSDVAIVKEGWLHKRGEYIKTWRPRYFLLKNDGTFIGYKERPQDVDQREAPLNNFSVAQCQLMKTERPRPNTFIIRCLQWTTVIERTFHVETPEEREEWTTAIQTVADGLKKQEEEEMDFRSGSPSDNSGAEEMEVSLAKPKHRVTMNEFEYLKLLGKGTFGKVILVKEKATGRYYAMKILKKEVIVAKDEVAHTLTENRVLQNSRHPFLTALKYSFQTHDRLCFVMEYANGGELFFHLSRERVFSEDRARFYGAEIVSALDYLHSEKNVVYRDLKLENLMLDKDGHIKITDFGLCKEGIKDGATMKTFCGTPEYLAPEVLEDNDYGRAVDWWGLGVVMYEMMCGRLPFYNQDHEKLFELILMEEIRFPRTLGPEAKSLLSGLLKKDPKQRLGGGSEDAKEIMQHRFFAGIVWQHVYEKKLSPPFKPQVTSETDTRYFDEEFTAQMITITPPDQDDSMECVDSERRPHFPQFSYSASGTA
UniProt Q9UM73: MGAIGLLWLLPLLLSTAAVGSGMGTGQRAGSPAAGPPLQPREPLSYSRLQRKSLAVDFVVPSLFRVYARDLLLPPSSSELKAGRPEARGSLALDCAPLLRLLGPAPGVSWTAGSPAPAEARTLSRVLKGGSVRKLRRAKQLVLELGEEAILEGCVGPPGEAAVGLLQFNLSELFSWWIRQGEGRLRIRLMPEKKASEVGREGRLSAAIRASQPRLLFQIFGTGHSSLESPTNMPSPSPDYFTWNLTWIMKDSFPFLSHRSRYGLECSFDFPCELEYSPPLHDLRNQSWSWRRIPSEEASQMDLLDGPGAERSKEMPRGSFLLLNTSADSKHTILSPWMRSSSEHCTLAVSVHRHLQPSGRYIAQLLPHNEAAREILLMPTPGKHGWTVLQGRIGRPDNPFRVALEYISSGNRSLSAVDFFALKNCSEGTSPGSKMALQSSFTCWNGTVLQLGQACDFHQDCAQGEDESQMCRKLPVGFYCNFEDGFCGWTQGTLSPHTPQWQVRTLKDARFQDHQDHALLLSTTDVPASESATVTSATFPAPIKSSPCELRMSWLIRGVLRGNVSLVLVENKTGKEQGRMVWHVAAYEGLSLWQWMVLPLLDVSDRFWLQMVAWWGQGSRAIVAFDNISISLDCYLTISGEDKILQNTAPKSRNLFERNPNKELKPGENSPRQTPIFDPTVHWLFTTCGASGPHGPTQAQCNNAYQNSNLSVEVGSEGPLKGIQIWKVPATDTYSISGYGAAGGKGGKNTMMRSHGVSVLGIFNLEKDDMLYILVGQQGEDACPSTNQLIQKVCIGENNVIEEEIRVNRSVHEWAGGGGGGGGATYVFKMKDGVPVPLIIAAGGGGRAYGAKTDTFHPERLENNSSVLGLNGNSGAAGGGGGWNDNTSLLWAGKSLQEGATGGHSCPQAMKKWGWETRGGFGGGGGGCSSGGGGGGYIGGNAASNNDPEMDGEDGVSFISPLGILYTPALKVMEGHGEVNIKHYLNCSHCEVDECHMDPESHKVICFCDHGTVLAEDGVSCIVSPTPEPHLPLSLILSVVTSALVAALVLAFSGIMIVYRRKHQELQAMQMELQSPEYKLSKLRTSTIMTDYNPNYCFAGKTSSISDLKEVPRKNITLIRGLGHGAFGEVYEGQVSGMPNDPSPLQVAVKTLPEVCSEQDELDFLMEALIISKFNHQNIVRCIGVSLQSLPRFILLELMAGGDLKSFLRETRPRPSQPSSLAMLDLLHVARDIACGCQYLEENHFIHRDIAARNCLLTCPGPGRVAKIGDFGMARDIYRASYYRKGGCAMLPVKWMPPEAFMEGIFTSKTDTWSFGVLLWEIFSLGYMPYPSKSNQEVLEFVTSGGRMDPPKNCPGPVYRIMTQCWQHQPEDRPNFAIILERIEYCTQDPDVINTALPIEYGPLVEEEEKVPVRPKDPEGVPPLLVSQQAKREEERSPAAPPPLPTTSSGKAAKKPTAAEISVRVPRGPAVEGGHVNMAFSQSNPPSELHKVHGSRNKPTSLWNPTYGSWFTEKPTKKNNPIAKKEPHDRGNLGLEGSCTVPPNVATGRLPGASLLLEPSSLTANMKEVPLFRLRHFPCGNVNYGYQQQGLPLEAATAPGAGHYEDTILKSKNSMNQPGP
UniProt P10398: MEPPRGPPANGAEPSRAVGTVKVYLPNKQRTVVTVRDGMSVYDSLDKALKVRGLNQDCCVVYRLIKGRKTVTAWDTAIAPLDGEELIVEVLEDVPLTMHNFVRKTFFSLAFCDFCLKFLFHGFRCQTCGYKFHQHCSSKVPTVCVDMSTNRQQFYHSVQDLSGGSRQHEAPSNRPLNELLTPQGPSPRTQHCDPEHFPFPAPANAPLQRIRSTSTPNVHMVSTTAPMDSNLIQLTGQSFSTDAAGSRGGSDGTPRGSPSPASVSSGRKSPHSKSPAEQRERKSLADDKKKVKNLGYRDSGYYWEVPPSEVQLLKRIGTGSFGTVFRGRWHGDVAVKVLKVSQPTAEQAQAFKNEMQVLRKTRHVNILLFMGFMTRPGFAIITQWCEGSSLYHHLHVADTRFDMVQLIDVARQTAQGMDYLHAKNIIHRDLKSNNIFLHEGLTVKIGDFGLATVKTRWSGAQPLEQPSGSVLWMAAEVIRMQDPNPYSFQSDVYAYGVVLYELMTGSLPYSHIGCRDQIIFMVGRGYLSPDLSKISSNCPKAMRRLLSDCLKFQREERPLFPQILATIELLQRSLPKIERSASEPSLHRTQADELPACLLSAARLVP
UniProt Q96GD4, whole entry: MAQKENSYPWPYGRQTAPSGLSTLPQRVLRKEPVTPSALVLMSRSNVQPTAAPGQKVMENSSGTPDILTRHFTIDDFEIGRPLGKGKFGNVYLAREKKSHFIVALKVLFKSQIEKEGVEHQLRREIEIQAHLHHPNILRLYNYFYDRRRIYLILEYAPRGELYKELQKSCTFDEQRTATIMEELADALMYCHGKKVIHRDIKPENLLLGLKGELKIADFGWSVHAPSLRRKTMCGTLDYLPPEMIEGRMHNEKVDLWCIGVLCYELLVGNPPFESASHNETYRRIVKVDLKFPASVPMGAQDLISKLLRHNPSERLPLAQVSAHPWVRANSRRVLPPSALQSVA
UniProt P51451: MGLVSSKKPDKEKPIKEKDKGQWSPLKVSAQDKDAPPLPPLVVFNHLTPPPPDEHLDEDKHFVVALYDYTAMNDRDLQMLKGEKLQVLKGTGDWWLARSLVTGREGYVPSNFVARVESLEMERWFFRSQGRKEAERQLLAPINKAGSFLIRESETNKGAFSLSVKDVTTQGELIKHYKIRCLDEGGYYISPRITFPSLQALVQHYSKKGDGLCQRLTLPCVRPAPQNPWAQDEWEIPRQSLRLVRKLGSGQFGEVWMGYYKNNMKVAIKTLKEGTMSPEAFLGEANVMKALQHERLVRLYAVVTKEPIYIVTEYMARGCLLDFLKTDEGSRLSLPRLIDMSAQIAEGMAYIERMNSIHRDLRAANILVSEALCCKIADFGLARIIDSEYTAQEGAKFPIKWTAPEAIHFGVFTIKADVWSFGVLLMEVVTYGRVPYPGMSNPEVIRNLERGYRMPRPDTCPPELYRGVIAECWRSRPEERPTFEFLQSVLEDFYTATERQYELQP
UniProt P15056, whole entry, looked up: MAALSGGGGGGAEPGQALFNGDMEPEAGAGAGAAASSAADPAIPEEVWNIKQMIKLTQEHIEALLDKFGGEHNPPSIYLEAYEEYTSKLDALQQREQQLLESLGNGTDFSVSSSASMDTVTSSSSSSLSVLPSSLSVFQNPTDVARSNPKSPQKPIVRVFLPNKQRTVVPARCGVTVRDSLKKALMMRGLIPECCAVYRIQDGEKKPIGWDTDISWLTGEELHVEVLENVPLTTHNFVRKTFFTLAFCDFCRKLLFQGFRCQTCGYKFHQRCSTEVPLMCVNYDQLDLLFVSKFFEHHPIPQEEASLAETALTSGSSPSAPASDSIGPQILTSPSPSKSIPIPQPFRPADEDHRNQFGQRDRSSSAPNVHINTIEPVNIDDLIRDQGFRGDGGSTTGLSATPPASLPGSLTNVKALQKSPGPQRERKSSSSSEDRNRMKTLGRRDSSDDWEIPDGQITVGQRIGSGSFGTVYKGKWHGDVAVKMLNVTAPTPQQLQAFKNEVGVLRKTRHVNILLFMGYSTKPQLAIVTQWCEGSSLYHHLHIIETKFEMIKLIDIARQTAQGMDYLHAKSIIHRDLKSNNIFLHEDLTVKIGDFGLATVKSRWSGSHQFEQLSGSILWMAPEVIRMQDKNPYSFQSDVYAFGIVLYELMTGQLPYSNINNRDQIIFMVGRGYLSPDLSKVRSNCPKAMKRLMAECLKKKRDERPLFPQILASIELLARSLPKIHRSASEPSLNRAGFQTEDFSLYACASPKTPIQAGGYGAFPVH
UniProt Q06187: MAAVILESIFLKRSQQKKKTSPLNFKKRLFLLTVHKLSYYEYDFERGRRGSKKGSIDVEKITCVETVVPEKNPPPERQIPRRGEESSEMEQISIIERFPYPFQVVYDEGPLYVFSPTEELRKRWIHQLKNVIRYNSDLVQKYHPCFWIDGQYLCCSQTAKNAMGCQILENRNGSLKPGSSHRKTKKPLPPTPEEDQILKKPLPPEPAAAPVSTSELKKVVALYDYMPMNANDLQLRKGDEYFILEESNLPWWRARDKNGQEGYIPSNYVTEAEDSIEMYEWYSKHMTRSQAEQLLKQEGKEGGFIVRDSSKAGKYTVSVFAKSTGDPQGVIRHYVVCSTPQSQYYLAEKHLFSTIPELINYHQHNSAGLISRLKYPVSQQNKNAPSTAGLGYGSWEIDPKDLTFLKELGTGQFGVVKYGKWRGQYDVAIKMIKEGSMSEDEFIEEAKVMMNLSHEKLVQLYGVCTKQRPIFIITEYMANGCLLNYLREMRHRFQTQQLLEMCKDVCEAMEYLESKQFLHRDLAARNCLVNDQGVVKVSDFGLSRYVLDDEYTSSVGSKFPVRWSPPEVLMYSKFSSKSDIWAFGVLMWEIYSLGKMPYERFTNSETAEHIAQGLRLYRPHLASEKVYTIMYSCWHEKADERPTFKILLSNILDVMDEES
UniProt Q9UQM7, whole entry: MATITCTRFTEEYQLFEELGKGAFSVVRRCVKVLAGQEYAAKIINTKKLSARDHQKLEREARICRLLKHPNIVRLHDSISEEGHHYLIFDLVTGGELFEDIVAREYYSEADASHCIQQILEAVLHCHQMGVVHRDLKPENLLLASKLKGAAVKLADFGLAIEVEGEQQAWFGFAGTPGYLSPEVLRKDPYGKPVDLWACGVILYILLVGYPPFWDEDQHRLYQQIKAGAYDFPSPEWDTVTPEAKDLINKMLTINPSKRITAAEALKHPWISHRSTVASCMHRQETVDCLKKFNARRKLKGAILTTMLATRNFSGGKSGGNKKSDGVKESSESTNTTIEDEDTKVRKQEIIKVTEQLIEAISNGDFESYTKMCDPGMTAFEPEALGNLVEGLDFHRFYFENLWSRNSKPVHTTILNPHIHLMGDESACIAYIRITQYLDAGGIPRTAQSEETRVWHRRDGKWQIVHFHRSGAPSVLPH
UniProt Q13555: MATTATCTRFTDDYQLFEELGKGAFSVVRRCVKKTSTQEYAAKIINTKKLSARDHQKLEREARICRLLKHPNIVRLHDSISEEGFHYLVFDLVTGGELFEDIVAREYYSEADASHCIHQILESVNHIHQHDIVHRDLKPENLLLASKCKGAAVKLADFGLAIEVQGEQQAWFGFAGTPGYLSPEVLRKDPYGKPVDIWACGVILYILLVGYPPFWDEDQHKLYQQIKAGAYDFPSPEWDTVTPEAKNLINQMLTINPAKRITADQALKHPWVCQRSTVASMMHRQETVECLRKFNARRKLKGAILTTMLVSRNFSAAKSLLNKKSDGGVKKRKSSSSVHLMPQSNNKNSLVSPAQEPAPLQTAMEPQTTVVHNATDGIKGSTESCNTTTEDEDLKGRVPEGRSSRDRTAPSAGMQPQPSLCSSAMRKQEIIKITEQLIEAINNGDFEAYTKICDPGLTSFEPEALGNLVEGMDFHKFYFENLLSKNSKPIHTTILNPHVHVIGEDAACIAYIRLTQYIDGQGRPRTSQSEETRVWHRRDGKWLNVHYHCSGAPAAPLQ
UniProt Q00534, whole entry: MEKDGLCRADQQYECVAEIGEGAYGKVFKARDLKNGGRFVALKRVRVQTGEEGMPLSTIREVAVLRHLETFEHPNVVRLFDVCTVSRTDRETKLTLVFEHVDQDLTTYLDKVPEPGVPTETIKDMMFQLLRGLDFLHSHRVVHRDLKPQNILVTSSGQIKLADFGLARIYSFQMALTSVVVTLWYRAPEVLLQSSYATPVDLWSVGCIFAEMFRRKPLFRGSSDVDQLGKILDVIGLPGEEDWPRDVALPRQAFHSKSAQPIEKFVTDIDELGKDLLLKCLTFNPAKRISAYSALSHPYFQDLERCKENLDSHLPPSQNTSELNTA

Legend:
Assay in all cases: kinase-Nluc reporter destabilization hit call (1 = scored as downregulated) (binary); higher = compound decreases kinase abundance
Conditions in all cases: K562; 2-18 h
ABL1 = ABL1 (UniProt P00519)
AKT1 = AKT1 (UniProt P31749)
ALK = ALK (UniProt Q9UM73)
ARAF = ARAF (UniProt P10398)
AURKA = AURKA (UniProt O14965)
AURKB = AURKB (UniProt Q96GD4)
AURKC = AURKC (UniProt Q9UQB9)
BLK = BLK (UniProt P51451)
BMX = BMX (UniProt P51813)
BRAF = BRAF (UniProt P15056)
BRAF_V600E = system: BRAF_V600E
BTK = BTK (UniProt Q06187)
CAMK2A = CAMK2A (UniProt Q9UQM7)
CAMK2G = CAMK2G (UniProt Q13555)
CDK10 = CDK10 (UniProt Q15131)
CDK2 = CDK2 (UniProt P24941)
CDK3 = CDK3 (UniProt Q00526)
CDK4 = CDK4 (UniProt P11802)
CDK5 = CDK5 (UniProt Q00535)
CDK6 = CDK6 (UniProt Q00534)

| SMILES | kinase-Nluc reporter destabilization hit call (ABL1) | kinase-Nluc reporter destabilization hit call (AKT1) | kinase-Nluc reporter destabilization hit call (ALK) | kinase-Nluc reporter destabilization hit call (ARAF) | kinase-Nluc reporter destabilization hit call (AURKA) | kinase-Nluc reporter destabilization hit call (AURKB) | kinase-Nluc reporter destabilization hit call (AURKC) | kinase-Nluc reporter destabilization hit call (BLK) | kinase-Nluc reporter destabilization hit call (BMX) | kinase-Nluc reporter destabilization hit call (BRAF) | kinase-Nluc reporter destabilization hit call (BRAF_V600E) | kinase-Nluc reporter destabilization hit call (BTK) | kinase-Nluc reporter destabilization hit call (CAMK2A) | kinase-Nluc reporter destabilization hit call (CAMK2G) | kinase-Nluc reporter destabilization hit call (CDK10) | kinase-Nluc reporter destabilization hit call (CDK2) | kinase-Nluc reporter destabilization hit call (CDK3) | kinase-Nluc reporter destabilization hit call (CDK4) | kinase-Nluc reporter destabilization hit call (CDK5) | kinase-Nluc reporter destabilization hit call (CDK6) |
| --- | --- | --- | --- | --- | --- | --- | --- | --- | --- | --- | --- | --- | --- | --- | --- | --- | --- | --- | --- | --- |
| COc1ccc2c(c1OC)OC1c3ccc(O)cc3OCC21 (stereo not given) [Methylnissolin] (10 µM) | inactive: 0 | inactive: 0 | inactive: 0 | inactive: 0 | inactive: 0 | inactive: 0 | inactive: 0 | inactive: 0 | inactive: 0 | inactive: 0 | inactive: 0 | inactive: 0 | inactive: 0 | inactive: 0 | inactive: 0 | inactive: 0 | inactive: 0 | inactive: 0 | inactive: 0 | inactive: 0 |
| CC(=O)NCCc1c[nH]c2ccc(O)cc12 [N-Acetyl-5-hydroxytryptamine] (10 µM) | inactive: 0 | inactive: 0 | inactive: 0 | inactive: 0 | inactive: 0 | inactive: 0 | inactive: 0 | inactive: 0 | inactive: 0 | inactive: 0 | inactive: 0 | inactive: 0 | inactive: 0 | inactive: 0 | inactive: 0 | inactive: 0 | inactive: 0 | inactive: 0 | inactive: 0 | inactive: 0 |
| CNC(=O)c1ccc(-c2cnc3cnc(-c4ccccc4)cn23)cc1 (10 µM) | inactive: 0 | inactive: 0 | inactive: 0 | inactive: 0 | inactive: 0 | inactive: 0 | inactive: 0 | inactive: 0 | inactive: 0 | inactive: 0 | inactive: 0 | inactive: 0 | inactive: 0 | inactive: 0 | inactive: 0 | inactive: 0 | inactive: 0 | inactive: 0 | inactive: 0 | inactive: 0 |
| COC1(C(=O)N[C@@H](C)c2ccc(-n3cc(F)cn3)nc2)CCC(c2nc(C)cc(Nc3cc(C)[nH]n3)n2)CC1 (stereo partly drawn) [trans-Pralsetinib] (2.5 µM) | inactive: 0 | inactive: 0 | inactive: 0 | inactive: 0 | inactive: 0 | inactive: 0 | inactive: 0 | inactive: 0 | inactive: 0 | inactive: 0 | inactive: 0 | inactive: 0 | inactive: 0 | inactive: 0 | inactive: 0 | inactive: 0 | inactive: 0 | inactive: 0 | inactive: 0 | inactive: 0 |
| O=C(NOCCO)c1ccc2cncn2c1Nc1ccc(I)cc1F (10 µM) | inactive: 0 | inactive: 0 | inactive: 0 | inactive: 0 | inactive: 0 | inactive: 0 | inactive: 0 | inactive: 0 | inactive: 0 | inactive: 0 | inactive: 0 | inactive: 0 | inactive: 0 | inactive: 0 | inactive: 0 | inactive: 0 | inactive: 0 | inactive: 0 | inactive: 0 | inactive: 0 |
| Nc1ncc(-c2ccc(C(=O)N3CCNCC3)cc2)nc1-c1ccc(C(F)(F)F)cc1 (10 µM) | inactive: 0 | inactive: 0 | inactive: 0 | inactive: 0 | inactive: 0 | inactive: 0 | inactive: 0 | inactive: 0 | inactive: 0 | inactive: 0 | inactive: 0 | inactive: 0 | inactive: 0 | inactive: 0 | inactive: 0 | inactive: 0 | inactive: 0 | inactive: 0 | inactive: 0 | inactive: 0 |
| CCN1C(=O)CNc2ncc(-c3ccc(-c4nc[nH]n4)nc3C)nc21 [CC-115 (hydrochloride)] (2.5 µM) | active: 1 | inactive: 0 | inactive: 0 | inactive: 0 | inactive: 0 | inactive: 0 | inactive: 0 | inactive: 0 | inactive: 0 | inactive: 0 | inactive: 0 | inactive: 0 | inactive: 0 | inactive: 0 | inactive: 0 | inactive: 0 | inactive: 0 | inactive: 0 | inactive: 0 | inactive: 0 |
| COc1ccc(CCNc2ncc3c(=O)n(-c4cccc(F)c4)c(=O)[nH]c3n2)cc1OC (2 µM) | inactive: 0 | inactive: 0 | inactive: 0 | inactive: 0 | inactive: 0 | inactive: 0 | inactive: 0 | inactive: 0 | inactive: 0 | inactive: 0 | inactive: 0 | inactive: 0 | inactive: 0 | inactive: 0 | inactive: 0 | inactive: 0 | inactive: 0 | inactive: 0 | inactive: 0 | inactive: 0 |
| CCc1cccc(CC)c1NC(=O)c1nn(C)c2c1CCc1cnc(Nc3ccc(C(=O)NC4CCN(C)CC4)cc3OC(F)(F)F)nc1-2 (2 µM) | inactive: 0 | inactive: 0 | inactive: 0 | inactive: 0 | inactive: 0 | inactive: 0 | inactive: 0 | inactive: 0 | inactive: 0 | inactive: 0 | inactive: 0 | inactive: 0 | inactive: 0 | inactive: 0 | inactive: 0 | inactive: 0 | inactive: 0 | inactive: 0 | inactive: 0 | inactive: 0 |
| O=c1ccc2ccc(O)c(O)c2o1 [Daphnetin] (10 µM) | inactive: 0 | inactive: 0 | inactive: 0 | inactive: 0 | inactive: 0 | inactive: 0 | inactive: 0 | inactive: 0 | inactive: 0 | inactive: 0 | inactive: 0 | inactive: 0 | inactive: 0 | inactive: 0 | inactive: 0 | inactive: 0 | inactive: 0 | inactive: 0 | inactive: 0 | inactive: 0 |
| CN(C)Cc1cccc(N=C(c2ccccc2)c2c(O)[nH]c3cc(C(=O)N(C)C)ccc23)c1 (10 µM) | inactive: 0 | inactive: 0 | inactive: 0 | inactive: 0 | inactive: 0 | inactive: 0 | inactive: 0 | inactive: 0 | inactive: 0 | inactive: 0 | inactive: 0 | inactive: 0 | inactive: 0 | inactive: 0 | inactive: 0 | inactive: 0 | inactive: 0 | inactive: 0 | inactive: 0 | inactive: 0 |
| CC(C)n1cnc2c(Nc3cccc(Cl)c3)nc(NCCO)nc21 (10 µM) | inactive: 0 | inactive: 0 | inactive: 0 | inactive: 0 | inactive: 0 | inactive: 0 | inactive: 0 | inactive: 0 | inactive: 0 | inactive: 0 | inactive: 0 | inactive: 0 | inactive: 0 | inactive: 0 | inactive: 0 | inactive: 0 | inactive: 0 | inactive: 0 | inactive: 0 | inactive: 0 |
| C=C(F)C(=O)N1CCN(c2nc(OC[C@@H]3CCCN3C)nc3c2CCN(c2cccc4cccc(Cl)c24)C3)C[C@@H]1CC#N (2.5 µM) | inactive: 0 | inactive: 0 | inactive: 0 | inactive: 0 | inactive: 0 | inactive: 0 | inactive: 0 | inactive: 0 | inactive: 0 | inactive: 0 | inactive: 0 | inactive: 0 | inactive: 0 | inactive: 0 | inactive: 0 | inactive: 0 | inactive: 0 | inactive: 0 | inactive: 0 | inactive: 0 |
| CC(C)c1cnn2c(NCc3ccccc3-n3cccn3)nc(OC3CCCNC3)nc12 (stereo not given) (2.5 µM) | inactive: 0 | inactive: 0 | inactive: 0 | inactive: 0 | inactive: 0 | inactive: 0 | inactive: 0 | inactive: 0 | inactive: 0 | inactive: 0 | inactive: 0 | inactive: 0 | inactive: 0 | inactive: 0 | inactive: 0 | inactive: 0 | inactive: 0 | inactive: 0 | inactive: 0 | inactive: 0 |
| NS(=O)(=O)c1ccc(N2N=C(c3ccccc3)CC2c2ccccc2)cc1 (stereo not given) (10 µM) | inactive: 0 | inactive: 0 | inactive: 0 | inactive: 0 | inactive: 0 | inactive: 0 | inactive: 0 | inactive: 0 | inactive: 0 | inactive: 0 | inactive: 0 | inactive: 0 | inactive: 0 | inactive: 0 | inactive: 0 | inactive: 0 | inactive: 0 | inactive: 0 | inactive: 0 | inactive: 0 |
| COC(=O)N[C@@H](C)CNc1nccc(-c2cn(C(C)C)nc2-c2cc(Cl)cc(NS(C)(=O)=O)c2F)n1 [Encorafenib] (10 µM) | inactive: 0 | inactive: 0 | inactive: 0 | inactive: 0 | inactive: 0 | inactive: 0 | inactive: 0 | inactive: 0 | inactive: 0 | inactive: 0 | inactive: 0 | inactive: 0 | inactive: 0 | inactive: 0 | inactive: 0 | inactive: 0 | inactive: 0 | inactive: 0 | inactive: 0 | inactive: 0 |
| CCc1c(C)sc(NC(=S)NC(=O)c2ccc(Cl)cc2)c1C(N)=O (10 µM) | inactive: 0 | inactive: 0 | inactive: 0 | inactive: 0 | inactive: 0 | inactive: 0 | inactive: 0 | inactive: 0 | inactive: 0 | inactive: 0 | inactive: 0 | inactive: 0 | inactive: 0 | inactive: 0 | inactive: 0 | inactive: 0 | inactive: 0 | inactive: 0 | inactive: 0 | inactive: 0 |
| COc1cc(N2CCC(N(C)C)CC2)ccc1Nc1ncc(Cl)c(Nc2ccccc2P(C)(C)=O)n1 (2.5 µM) | inactive: 0 | inactive: 0 | inactive: 0 | inactive: 0 | inactive: 0 | inactive: 0 | inactive: 0 | inactive: 0 | inactive: 0 | inactive: 0 | inactive: 0 | inactive: 0 | inactive: 0 | inactive: 0 | inactive: 0 | inactive: 0 | inactive: 0 | inactive: 0 | inactive: 0 | inactive: 0 |

Looked up by compound from the entries so far (2):

| SMILES | kinase-Nluc reporter destabilization hit call (ABL1) | kinase-Nluc reporter destabilization hit call (AKT1) | kinase-Nluc reporter destabilization hit call (ALK) | kinase-Nluc reporter destabilization hit call (ARAF) | kinase-Nluc reporter destabilization hit call (AURKA) | kinase-Nluc reporter destabilization hit call (AURKB) | kinase-Nluc reporter destabilization hit call (AURKC) | kinase-Nluc reporter destabilization hit call (BLK) | kinase-Nluc reporter destabilization hit call (BMX) | kinase-Nluc reporter destabilization hit call (BRAF) | kinase-Nluc reporter destabilization hit call (BRAF_V600E) | kinase-Nluc reporter destabilization hit call (BTK) | kinase-Nluc reporter destabilization hit call (CAMK2A) | kinase-Nluc reporter destabilization hit call (CAMK2G) | kinase-Nluc reporter destabilization hit call (CDK10) | kinase-Nluc reporter destabilization hit call (CDK2) | kinase-Nluc reporter destabilization hit call (CDK3) | kinase-Nluc reporter destabilization hit call (CDK4) | kinase-Nluc reporter destabilization hit call (CDK5) | kinase-Nluc reporter destabilization hit call (CDK6) |
| --- | --- | --- | --- | --- | --- | --- | --- | --- | --- | --- | --- | --- | --- | --- | --- | --- | --- | --- | --- | --- |
| CC(C)n1cnc2c(Nc3cccc(Cl)c3)nc(NCCO)nc21 (10 µM) | inactive: 0 | inactive: 0 | inactive: 0 | inactive: 0 | inactive: 0 | inactive: 0 | inactive: 0 | inactive: 0 | inactive: 0 | inactive: 0 | inactive: 0 | inactive: 0 | inactive: 0 | inactive: 0 | inactive: 0 | inactive: 0 | inactive: 0 | inactive: 0 | inactive: 0 | inactive: 0 |
| COc1cc(N2CCC(N(C)C)CC2)ccc1Nc1ncc(Cl)c(Nc2ccccc2P(C)(C)=O)n1 (2.5 µM) | inactive: 0 | inactive: 0 | inactive: 0 | inactive: 0 | inactive: 0 | inactive: 0 | inactive: 0 | inactive: 0 | inactive: 0 | inactive: 0 | inactive: 0 | inactive: 0 | inactive: 0 | inactive: 0 | inactive: 0 | inactive: 0 | inactive: 0 | inactive: 0 | inactive: 0 | inactive: 0 |
